These are yes or no findings as the source states them, for the method shown. Binding seen in cells or lysates may run through a third protein. Binding calls can cover weak binding; strength is not graded here.
Target: T1, Rpt1 (S. cerevisiae) (UniProt P33299)
T1 sequence: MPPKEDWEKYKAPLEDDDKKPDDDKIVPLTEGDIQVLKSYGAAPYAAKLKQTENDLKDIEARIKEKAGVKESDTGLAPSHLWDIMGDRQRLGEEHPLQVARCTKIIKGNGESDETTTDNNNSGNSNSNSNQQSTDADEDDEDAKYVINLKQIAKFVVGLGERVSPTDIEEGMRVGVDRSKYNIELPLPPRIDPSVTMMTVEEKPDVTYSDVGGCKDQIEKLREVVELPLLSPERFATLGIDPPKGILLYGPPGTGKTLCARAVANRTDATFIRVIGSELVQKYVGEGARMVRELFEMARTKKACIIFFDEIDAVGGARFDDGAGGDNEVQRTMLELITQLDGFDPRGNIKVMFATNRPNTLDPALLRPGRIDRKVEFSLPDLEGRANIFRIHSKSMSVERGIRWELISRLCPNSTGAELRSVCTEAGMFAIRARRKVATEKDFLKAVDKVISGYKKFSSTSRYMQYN
Test: pull-down; each RPT ATPase purified and immobilized on CH-sepharose beads, incubated with full-length Rpn11 or Rpn11ΔC; BSA beads as mock; anti-Rpn11 immunoblot

Rpn11ΔC (S. cerevisiae) (domain or fragment)
binding: binds

From publication PMC4438304
